Results: paper doi:10.1101/142943
These are yes or no findings as the source states them, for the method shown. Binding seen in cells or lysates may run through a third protein. A result given as binding can be weak or reduced; the word gives no strength.

Biological target: MITF-HA (UniProt O75030)
Assay: co-IP

- binding: binds
Substance: OCT4-Flag (from UniProt Q01860 1-360)
